From PMC11231609
No constants are given. Whether binding was seen depends on the method and setting. Binding seen in cells or lysates may run through a third protein. These calls come from enrichment with a bait or labelling near it, and not all partners need be listed.

Chains of the proteins cited; added tags and fusions are not shown. Residues count along the entry.
UniProt Q16602, residues 23-461: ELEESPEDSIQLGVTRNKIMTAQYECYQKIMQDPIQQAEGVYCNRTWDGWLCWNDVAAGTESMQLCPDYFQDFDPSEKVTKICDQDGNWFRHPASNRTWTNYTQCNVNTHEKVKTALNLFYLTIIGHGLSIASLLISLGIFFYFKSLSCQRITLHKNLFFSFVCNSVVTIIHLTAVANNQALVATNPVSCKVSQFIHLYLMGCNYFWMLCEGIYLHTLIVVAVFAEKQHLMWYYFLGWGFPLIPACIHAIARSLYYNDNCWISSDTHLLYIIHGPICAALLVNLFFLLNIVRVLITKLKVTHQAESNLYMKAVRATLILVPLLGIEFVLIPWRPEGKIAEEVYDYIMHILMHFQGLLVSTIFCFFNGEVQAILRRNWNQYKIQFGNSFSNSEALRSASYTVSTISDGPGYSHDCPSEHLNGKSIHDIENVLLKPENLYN

Molecular target: calcitonin receptor-like receptor (human (endogenous in HDLEC)) (UniProt Q16602)
Experiment: affinity purification with mass spectrometry; IP of endogenous CLR from precleared HDLEC RIPA lysate (600 ug protein) with rabbit anti-human CLR immune serum LN-1436, protein G magnetic beads, 4 C, washes in 50 mM Tris pH 7.4, 150 mM NaCl without detergent; on-bead digestion, label-free quantitative nano LC-MS/MS; control IP with preimmune serum of the same rabbit; four independent experiments

binding: binds
B1: nucleoporin 93 (protein, UniProt Q8N1F7 1-819)
chain: MDTEGFGELLQQAEQLAAETEGISELPHVERNLQEIQQAGERLRSRTLTRTSQETADVKASVLLGSRGLDISHISQRLESLSAATTFEPLEPVKDTDIQGFLKNEKDNALLSAIEESRKRTFGMAEEYHRESMLVEWEQVKQRILHTLLASGEDALDFTQESEPSYISDVGPPGRSSLDNIEMAYARQIYIYNEKIVNGHLQPNLVDLCASVAELDDKSISDMWTMVKQMTDVLLTPATDALKNRSSVEVRMEFVRQALAYLEQSYKNYTLVTVFGNLHQAQLGGVPGTYQLVRSFLNIKLPAPLPGLQDGEVEGHPVWALIYYCMRCGDLLAASQVVNRAQHQLGEFKTWFQEYMNSKDRRLSPATENKLRLHYRRALRNNTDPYKRAVYCIIGRCDVTDNQSEVADKTEDYLWLKLNQVCFDDDGTSSPQDRLTLSQFQKQLLEDYGESHFTVNQQPFLYFQVLFLTAQFEAAVAFLFRMERLRCHAVHVALVLFELKLLLKSSGQSAQLLSHEPGDPPCLRRLNFVRLLMLYTRKFESTDPREALQYFYFLRDEKDSQGENMFLRCVSELVIESREFDMILGKLENDGSRKPGVIDKFTSDTKPIINKVASVAENKGLFEEAAKLYDLAKNADKVLELMNKLLSPVVPQISAPQSNKERLKNMALSIAERYRAQGISANKFVDSTFYLLLDLITFFDEYHSGHIDRAFDIIERLKLVPLNQESVEERVAAFRNFSDEIRHNLSEVLLATMNILFTQFKRLKGTSPSSSSRPQRVIEDRDSQLRSQARTLITFAGMIPYRTSGDTNARLVQMEVLMN
